Measured values reported in article PMC7819943, “Rice protein-binding microarrays: a tool to detect cis-acting elements near promoter regions in rice”.
The list shows a part of the results.

Each sequence was assayed against T1, OsSMF1 (Oryza sativa, UniProt Q6ZLB0 1-436) (assay: protein-binding microarray (RPBM); PBS, 2% BSA, 51.3 ng/ul salmon testes DNA, 50 uM zinc acetate, 200 nM TF, 25 C, 1 h; high values mean tight binding). Details: protein: recombinant; tags: N-terminal polyhistidine and DsRed monomer fusion (pET32a); chain copies: 2; label: CyDye5-dUTP incorporated in the synthesized complementary strand; 3' TTTTT single-stranded linker to array surface; dsDNA, one strand shown.
T1 sequence: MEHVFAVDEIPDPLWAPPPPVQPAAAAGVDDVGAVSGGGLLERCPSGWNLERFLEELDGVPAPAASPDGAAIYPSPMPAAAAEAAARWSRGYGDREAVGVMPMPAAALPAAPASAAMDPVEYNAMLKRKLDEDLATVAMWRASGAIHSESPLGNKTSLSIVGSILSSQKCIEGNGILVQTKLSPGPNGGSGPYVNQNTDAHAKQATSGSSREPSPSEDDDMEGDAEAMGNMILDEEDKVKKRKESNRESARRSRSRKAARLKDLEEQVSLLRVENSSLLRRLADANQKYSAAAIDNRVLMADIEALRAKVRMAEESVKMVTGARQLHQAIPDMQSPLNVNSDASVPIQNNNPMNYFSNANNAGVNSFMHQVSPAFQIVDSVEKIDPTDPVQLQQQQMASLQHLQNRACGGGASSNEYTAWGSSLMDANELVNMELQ
How it was run: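 Per-feature fluorescence intensity (arbitrary units), read on an Axon 4000B scanner, is the binding signal. Transcription factors carrying an N-terminal polyhistidine tag and DsRed fusion were expressed in E. coli BL21-CodonPlus and purified on Ni–NTA. A custom Agilent array, made double-stranded by primer extension with Cy5-dUTP and blocked with 2% BSA, was incubated with 200 nM protein in PBS, 2% BSA, salmon testes DNA and 50 µM zinc acetate at 25 °C for 1 h and then washed.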
In the case of “CCCGCCTCGCCGTCTCCCGTTCGGAACACCAAGCTCCAGCCGGAGTCACCTAGTGCAG”, the binding signal is reported as 32200 fluorescence intensity (a.u.). “CATTTCTCTGCCACCTCATCACTTTTGCCATCGTGGACACCGGAGTCACCTAGTGCAG” was tested, and the binding signal was 14300 fluorescence intensity (a.u.). With “TTTGAAACCCCTCCTCCTCCTCCTTCCCCAACACACAATCCGGAGTCACCTAGTGCAG” the binding signal was 3250 fluorescence intensity (a.u.). With “TAGGTGGTTAGCCCAAGCTCGCGAGATCGATCGCTACTATCGGAGTCACCTAGTGCAG” the binding signal was 6610 fluorescence intensity (a.u.). For “CCGAAACCACAAAATTGCGTGGTTTTCGACCGGTTTTCATCGGAGTCACCTAGTGCAG”, the binding signal was 6260 fluorescence intensity (a.u.). In the case of “TATGGTGATACGTGTCTAGTGGTGTGCGTGCTTAGTTTTGCGGAGTCACCTAGTGCAG”, the binding signal is reported as 6100 fluorescence intensity (a.u.). With “ATATTAAAACTTGACAATGCTGTCACCTTATTACTCCCTCCGGAGTCACCTAGTGCAG” the binding signal was 4420 fluorescence intensity (a.u.). With “CGTTCATCCTGTCCACCCAGAGCCATTGCCACACACACACCGGAGTCACCTAGTGCAG” the binding signal was 3490 fluorescence intensity (a.u.). For “ATTTGTGTACGGCACCGCCCCACCCGCCACGCCTCCGCCTCGGAGTCACCTAGTGCAG”, the binding signal was 3290 fluorescence intensity (a.u.). With “TACTCGATTTGGTTCTTGGTTGTGACGAGTGTTCCGGGTGCGGAGTCACCTAGTGCAG” the binding signal was 3140 fluorescence intensity (a.u.). For “TAAAATTTTGGCTGATAAGTACTTCCTCCGTTTCACGATGCGGAGTCACCTAGTGCAG”, the binding signal was 3250 fluorescence intensity (a.u.). With “TTGTATCATTACCTAATTAGAGCTAGCTCTGCCACCACTGCGGAGTCACCTAGTGCAG” the binding signal was 3370 fluorescence intensity (a.u.). For “GCCGCCGCTGGCGGGTGGGGATCGGTGGGGCAGTTCGGGCCGGAGTCACCTAGTGCAG”, the binding signal was 3640 fluorescence intensity (a.u.). With “GAAACTTGTAGAAGCGAAAAGAGCGATGGGTGTCAGTTTGCGGAGTCACCTAGTGCAG” the binding signal was 3200 fluorescence intensity (a.u.). “CCTGAAGCTCTTCGCACGAATGTCGATACATTCCCAAGCGCGGAGTCACCTAGTGCAG” was tested, and the binding signal was 3480 fluorescence intensity (a.u.). “ACGATTCACAACCCACGAGTGATGATTCAGAAGTGAAAACCGGAGTCACCTAGTGCAG” was tested, and the binding signal was 3260 fluorescence intensity (a.u.). With “AACGGCAGTACGGTATAGGAAAGGGAATAATAATAACAATCGGAGTCACCTAGTGCAG” the binding signal was 20400 fluorescence intensity (a.u.). With “AAGCGGGGATTTTATGTGGGCAGTGGGTTTTCTTCTTAAACGGAGTCACCTAGTGCAG” the binding signal was 3810 fluorescence intensity (a.u.). “CCGATTTTCATGACGAAACTCTACTTTTGCAAAATGCTTCCGGAGTCACCTAGTGCAG” was tested, and the binding signal was 3140 fluorescence intensity (a.u.). “ACATAACGATATGTCGTGGCCCCATCATCACATTCACAGACGGAGTCACCTAGTGCAG” was tested, and the binding signal was 3800 fluorescence intensity (a.u.). “ACCGGCCAGGCAAACCCAGTCAGCCAAACCCTCACCCGTACGGAGTCACCTAGTGCAG” was tested, and the binding signal was 3420 fluorescence intensity (a.u.). “GTTTTCCTTGCTGACCTCGATTCGGAATATGGATCCGTGTCGGAGTCACCTAGTGCAG” was tested, and the binding signal was 3350 fluorescence intensity (a.u.). “GGTTGTTCGCTGATGTGTAGCTTTCAGAGCGATTAGGCTTCGGAGTCACCTAGTGCAG” was tested, and the binding signal was 5900 fluorescence intensity (a.u.). With “GCGGCGGCGCGAGCAAGTGACGCGGCGGCGCGATAAGGGCCGGAGTCACCTAGTGCAG” the binding signal was 4650 fluorescence intensity (a.u.). With “GGTGAATGGCGGTGGTTTCGGCTTGCACGGTGGGAATGGTCGGAGTCACCTAGTGCAG” the binding signal was 3490 fluorescence intensity (a.u.). In the case of “CTACTCTTATCCAAGGCAGACGGGCACGTGTAACTGCCATCGGAGTCACCTAGTGCAG”, the binding signal is reported as 4590 fluorescence intensity (a.u.). “GTATAAGAGAAGCCGGATAATTCACTGATACTCCAATGGACGGAGTCACCTAGTGCAG” was tested, and the binding signal was 15500 fluorescence intensity (a.u.). With “CCTCTTCCTCTGCTTCGTCTTCTTCCTCTCGCTGCTGCTTCGGAGTCACCTAGTGCAG” the binding signal was 30500 fluorescence intensity (a.u.). In the case of “GACTGCGGCCACAGATGATCCTGATGTGTAAACTCATGCTCGGAGTCACCTAGTGCAG”, the binding signal is reported as 3140 fluorescence intensity (a.u.). “ACTTGAAATATTGGCTATTATTATTGAACCTAGGAACAAGCGGAGTCACCTAGTGCAG” was tested, and the binding signal was 18400 fluorescence intensity (a.u.). With “GAGATTCGCCACCCGCCGGAGAAATGCCGCCACGGAGGCGCGGAGTCACCTAGTGCAG” the binding signal was 4170 fluorescence intensity (a.u.). “GCGCCGCCAGCCGCTACAGGTCAGCGGCAACAGCAGGTTCCGGAGTCACCTAGTGCAG” was tested, and the binding signal was 29200 fluorescence intensity (a.u.). “TGTATGTAATATTAACATGGAGATAAGATCCAAGATGCGACGGAGTCACCTAGTGCAG” was tested, and the binding signal was 3570 fluorescence intensity (a.u.). In the case of “TGCCATCCAATTCGTGCTACTTTCAGAATACACCATCGAACGGAGTCACCTAGTGCAG”, the binding signal is reported as 3320 fluorescence intensity (a.u.). “AGTTCTCATCTCCAATTTTCTCGGTACGTGTATTTGAGGGCGGAGTCACCTAGTGCAG” was tested, and the binding signal was 3220 fluorescence intensity (a.u.). With “CACGGCATCGGCATCGGCAGCCACGCCTCGCGTGGCACGGCGGAGTCACCTAGTGCAG” the binding signal was 4720 fluorescence intensity (a.u.). “TATTCCCAACGTCATGACAGGGACACGTCATAACAAATTCCGGAGTCACCTAGTGCAG” was tested, and the binding signal was 16000 fluorescence intensity (a.u.). “CAAATTATTTTGGTTGCATTGTTTATTCTAAAGAGCTGATCGGAGTCACCTAGTGCAG” was tested, and the binding signal was 14900 fluorescence intensity (a.u.). “GACAATGATGTCACGGGCGGACGCGGCTGTGACGCACGCACGGAGTCACCTAGTGCAG” was tested, and the binding signal was 7830 fluorescence intensity (a.u.). “GCTCTATGATTTGACAATGTAGTGCTACAGTAAACATTTGCGGAGTCACCTAGTGCAG” was tested, and the binding signal was 3820 fluorescence intensity (a.u.). In the case of “AGCCCACGTCCAGCTCACACACGCACCCACAACCGACCCACGGAGTCACCTAGTGCAG”, the binding signal is reported as 6070 fluorescence intensity (a.u.). For “TCGACCAATCCTATAAAGCGACACATCACCGGATAACCACCGGAGTCACCTAGTGCAG”, the binding signal was 7880 fluorescence intensity (a.u.).
